The results in this text go back to article PMC7819943, “Rice protein-binding microarrays: a tool to detect cis-acting elements near promoter regions in rice”.

Chains of the proteins cited; added tags and fusions are not shown.
UniProt Q0JBA9, entry or part of it: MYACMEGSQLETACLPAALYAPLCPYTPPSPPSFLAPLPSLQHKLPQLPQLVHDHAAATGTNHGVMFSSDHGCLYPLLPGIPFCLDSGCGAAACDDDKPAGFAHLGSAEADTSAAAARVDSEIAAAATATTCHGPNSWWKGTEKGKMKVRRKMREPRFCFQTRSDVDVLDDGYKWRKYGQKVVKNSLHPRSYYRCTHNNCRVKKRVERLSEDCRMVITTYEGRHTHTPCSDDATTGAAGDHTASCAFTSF

The list shows a part of the results.

The target of the assay is OsWRKY34 (Oryza sativa, UniProt Q0JBA9 1-250). Briefly: protein-binding microarray (RPBM); PBS, 2% BSA, 51.3 ng/ul salmon testes DNA, 50 uM zinc acetate, 200 nM TF, 25 C, 1 h; high values mean tight binding. Conditions: protein: recombinant; tags: N-terminal polyhistidine and DsRed monomer fusion (pET32a); label: CyDye5-dUTP incorporated in the synthesized complementary strand; 3' TTTTT single-stranded linker to array surface; dsDNA, one strand shown. Put shortly: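 Transcription factors, each fused N-terminally to a polyhistidine tag and DsRed, were expressed in E. coli BL21-CodonPlus and purified on Ni–NTA. A custom Agilent array was made double-stranded by primer extension with Cy5-dUTP and blocked with 2% BSA. It was incubated with 200 nM protein in PBS, 2% BSA, salmon testes DNA and 50 µM zinc acetate at 25 °C for 1 h, then washed. The binding signal is per-feature fluorescence intensity (arbitrary units) read on an Axon 4000B scanner.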
For “TAAGCCCATTTACATTTTCCAACCCATCCCATATTCATATCGGAGTCACCTAGTGCAG”, the binding signal was 8270 fluorescence intensity (a.u.).
In the case of “TTGATACCTTGATTTCAGTTGCACTATCAATTCTTCTTGACGGAGTCACCTAGTGCAG”, the binding signal was 9650 fluorescence intensity (a.u.).
The figure for “CCCACCACCGCATGGCCGGTGCGTTGACCTGTCAGTCTCCCGGAGTCACCTAGTGCAG” is 14900 fluorescence intensity (a.u.); for “CTTGCTCATCTTTGCCGATTTGTTTCTTCTCGAGAGCCTACGGAGTCACCTAGTGCAG” it is 14400 fluorescence intensity (a.u.); for “CCTCGTGGGTGGGTGTGCGGGTGCGGGACTCGGTGGGATGCGGAGTCACCTAGTGCAG” it is 12100 fluorescence intensity (a.u.).
On to “ATTCTGTTTCTTCTGCATCAGAGATTCTCGTCTGTTTAGTCGGAGTCACCTAGTGCAG”, for which the binding signal was 9460 fluorescence intensity (a.u.).
In the case of “AGCTTGTCCGGTCTACAACATGTGCAGTTCAGTTTTGTATCGGAGTCACCTAGTGCAG”, the binding signal is 8560 fluorescence intensity (a.u.).
As for “GACACGACTCCACGCACCGTTCCACCTAGCAACTGACGTCCGGAGTCACCTAGTGCAG”, the binding signal is 10200 fluorescence intensity (a.u.).
The figure for “TGCGCTTGTGGTTTGTGGTGTATGTGTGTGTAATCGAGAACGGAGTCACCTAGTGCAG” is 10700 fluorescence intensity (a.u.); for “GCAGCCATTTCGCCCTTCTTTTTTCTTCCTTCCGAGGAAACGGAGTCACCTAGTGCAG” it is 9430 fluorescence intensity (a.u.); for “GACCAAACATTTCCACTACTTGTCCTACTACTAACATTTTCGGAGTCACCTAGTGCAG” it is 13900 fluorescence intensity (a.u.).
For the sequence “CATATCGTCGACCGACCAACTCTTACACGATCGATCGATCCGGAGTCACCTAGTGCAG”, the binding signal was 8290 fluorescence intensity (a.u.).
For the sequence “CCTCACCTCACCATTTCACCAACCACCTCGCGTACTCCGGCGGAGTCACCTAGTGCAG”, the binding signal was 9300 fluorescence intensity (a.u.).
Turning to “GAAATCCGGTGGTTGGTTGGTGGCTTAGTGCTGGCGTGCTCGGAGTCACCTAGTGCAG”, the binding signal was 8500 fluorescence intensity (a.u.).
Turning to “TTCTTGATTCTTGCTGCTTCTTGCTTCTTGTTGCTGTTGTCGGAGTCACCTAGTGCAG”, the binding signal is 8430 fluorescence intensity (a.u.).
For “GTGGTGTTGGATAGTTTGATAGGCTGCTTCCCTACTAGGCCGGAGTCACCTAGTGCAG”, the binding signal was 8340 fluorescence intensity (a.u.).
On to “TTTGCTGTGGGATATGTGGATGAATGCATGTTATACATTACGGAGTCACCTAGTGCAG”, for which the binding signal was 10400 fluorescence intensity (a.u.).
The same measure for “ACATTTTTACCACTATTCACACTATTGTTTGTCCTATCAACGGAGTCACCTAGTGCAG”: 8330 fluorescence intensity (a.u.).
In the case of “GTCTCGTCCCGTCCCTGCGCTGCACGTCTCCGCCTCCAAGCGGAGTCACCTAGTGCAG”, the binding signal is 13100 fluorescence intensity (a.u.).
Consider “AAGTAATTATTAATTCTTTTCCTATCATTTGTTTCATTATCGGAGTCACCTAGTGCAG”, for which the binding signal was 9270 fluorescence intensity (a.u.).
The same measure for “ATCGCCGCACGCCTCCTCTCCAGAACACTCGCCCGCCACACGGAGTCACCTAGTGCAG”: 10200 fluorescence intensity (a.u.); for “ATGCGCTCCGCCCTTCTCATCCTCTTCCACTTTATTACGGCGGAGTCACCTAGTGCAG”: 10300 fluorescence intensity (a.u.); for “CCGCGCGTCCACCTCTCGCGAGCTCGTTACCCCAAACCCTCGGAGTCACCTAGTGCAG”: 10400 fluorescence intensity (a.u.).
In the case of “TTTCATCCATTCCCAAGGATCATTACAATGTGCTAGTTTACGGAGTCACCTAGTGCAG”, the binding signal is 8070 fluorescence intensity (a.u.).
As for “ACTTCTAATATTCCTTATTTTTAATTCCGAATTTCTATAACGGAGTCACCTAGTGCAG”, the binding signal is 8170 fluorescence intensity (a.u.).
Consider “TTCTTTCTAGTGGTGGTGGCCTGGTGGGTTAAACTGAGTTCGGAGTCACCTAGTGCAG”, for which the binding signal was 8740 fluorescence intensity (a.u.).
Turning to “GTGTTGTGTCGGGTGGTATGTTATTTACTCGTGTTGAGTTCGGAGTCACCTAGTGCAG”, the binding signal was 12500 fluorescence intensity (a.u.).
As to “CATTCTCTTGGTCATGCATATTACAGCGCCATATCCTATACGGAGTCACCTAGTGCAG”, the binding signal is 9080 fluorescence intensity (a.u.).
The same measure for “TCTTTGTTGGTGTTGTGTATCTCTTCTCTATCAAACAAAACGGAGTCACCTAGTGCAG”: 11000 fluorescence intensity (a.u.); for “AACCACCACAAGCCGTTAACCCCGTTGTTTACCTCCTCCTCGGAGTCACCTAGTGCAG”: 8190 fluorescence intensity (a.u.); for “AAAGCTGCACCCATCCGTTTGTTCGCCACCATTTCCATCCCGGAGTCACCTAGTGCAG”: 9500 fluorescence intensity (a.u.).
Consider “TTGTCGTCCACGCCGCCATCTCCTTGGTCATCCGCAACAACGGAGTCACCTAGTGCAG”, for which the binding signal is 8350 fluorescence intensity (a.u.).
For “CTCACCTTCTGCTCCTGGCTTTGCCTCGAATTATAACACACGGAGTCACCTAGTGCAG”, the binding signal is 12800 fluorescence intensity (a.u.).
As to “TTCTTGTCTTCATCAGTTTTGTTAAATCGATCGGTGGTTGCGGAGTCACCTAGTGCAG”, the binding signal was 10200 fluorescence intensity (a.u.).
The figure for “AAGGTTGTCTTGTTTGATTAGCTATTTTCTTTGCCTGGTTCGGAGTCACCTAGTGCAG” is 11400 fluorescence intensity (a.u.); for “ACATAGCAGCAGGCGGCGACCTCGGTTTACGGAAAGTCAACGGAGTCACCTAGTGCAG” it is 9300 fluorescence intensity (a.u.); for “AAAAAATGTGTGCGGTCAGAAGGTGGTTTGATTCTTATTTCGGAGTCACCTAGTGCAG” it is 11000 fluorescence intensity (a.u.).
For the sequence “CTTCCTATCTTCCCTGCTTCTACTTTTCTTATCCTTTTGCCGGAGTCACCTAGTGCAG”, the binding signal is 9360 fluorescence intensity (a.u.).
Take “AATCTCGACCACTGTCTACGTATACCTGCTTCATCTGAACCGGAGTCACCTAGTGCAG”: the binding signal is 9740 fluorescence intensity (a.u.).
Regarding “GGGTTTTGTTTGGCTGTATTTTGTGAATTTGTGATGCAGTCGGAGTCACCTAGTGCAG”, the binding signal is 10400 fluorescence intensity (a.u.).
The same measure for “ATACATCTACCTCTCACCATACCTCACGCGACCTACATAACGGAGTCACCTAGTGCAG”: 12300 fluorescence intensity (a.u.); for “CCATGTGAATTGCTTCTTCGTACTACTGTACTCTCTTTCTCGGAGTCACCTAGTGCAG”: 12300 fluorescence intensity (a.u.).
